Results taken from US10238631B2, “Sesquiterpene derivatives and their use in inflammation or cancer treatment” (Academia Sinica, priority 2014, dated 2019).
For at least one compound, name, drawing or mass did not settle the structure.

Key:
[1] = tested on: phospho-MEK and phospho-ERK in parental A375 cells; test: Western blot of MAPK signaling, A375; format: cell-based, human; conditions: 6 h
[2] = tested on: phospho-MEK and phospho-ERK in A375-R cells; test: Western blot of MAPK signaling, A375-R; format: cell-based, human
Protocol: Total cellular proteins were prepared from test cells as previously described. Protein concentration was determined by the Bradford method (Bio-Rad). Protein samples were resolved by 5% to 20% gradient SDS-PAGE and then underwent immunoblotting. Primary antibodies against ERK1/2 and GAPDH were from Santa Cruz Biotechnology (Santa Cruz, Calif., USA) and MEK, phospho-ERK1/2 and phospho-MEK were from Cell Signaling Technology (Danvers, Mass., USA). Appropriate horseradish peroxidase-conjugated secondary antibodies were used. Protein bands reacting to specific antibody were visualized by use of enhanced chemiluminescence (Amersham) with exposure to chemiluminescence light film (BioMax; Kodak Co.).

SMILES: CCCS(=O)(=O)Nc1ccc(F)c(C(=O)c2c[nH]c3ncc(-c4ccc(Cl)cc4)cc23)c1F [PLX4032, Vemurafenib]
- effect on phospho-MEK and phospho-ERK, parental A375 [1]: inhibited MAPK signaling molecules phospho-MEK and phospho-ERK
- effect on MAP kinases (phospho-MEK, phospho-ERK), A375-R [2]: but not in A375-R cells
